Measured values reported in article PMC12013442.
These are yes or no findings as the source states them, for the method shown. For some assays here: Binding seen in cells or lysates may run through a third protein. Some binding calls cover weakened binding; strength is not graded here.

By UniProt entry, the sequences of proteins in these tests, tags left out. Residues count along the entry.
UniProt P03186, residues 1-235: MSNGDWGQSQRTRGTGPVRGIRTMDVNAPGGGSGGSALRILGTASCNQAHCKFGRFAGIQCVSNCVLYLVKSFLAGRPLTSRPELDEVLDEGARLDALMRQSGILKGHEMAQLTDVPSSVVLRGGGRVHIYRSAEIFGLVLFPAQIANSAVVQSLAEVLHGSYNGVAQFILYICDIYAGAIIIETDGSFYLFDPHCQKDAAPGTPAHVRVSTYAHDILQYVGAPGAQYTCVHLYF
UniProt O94874: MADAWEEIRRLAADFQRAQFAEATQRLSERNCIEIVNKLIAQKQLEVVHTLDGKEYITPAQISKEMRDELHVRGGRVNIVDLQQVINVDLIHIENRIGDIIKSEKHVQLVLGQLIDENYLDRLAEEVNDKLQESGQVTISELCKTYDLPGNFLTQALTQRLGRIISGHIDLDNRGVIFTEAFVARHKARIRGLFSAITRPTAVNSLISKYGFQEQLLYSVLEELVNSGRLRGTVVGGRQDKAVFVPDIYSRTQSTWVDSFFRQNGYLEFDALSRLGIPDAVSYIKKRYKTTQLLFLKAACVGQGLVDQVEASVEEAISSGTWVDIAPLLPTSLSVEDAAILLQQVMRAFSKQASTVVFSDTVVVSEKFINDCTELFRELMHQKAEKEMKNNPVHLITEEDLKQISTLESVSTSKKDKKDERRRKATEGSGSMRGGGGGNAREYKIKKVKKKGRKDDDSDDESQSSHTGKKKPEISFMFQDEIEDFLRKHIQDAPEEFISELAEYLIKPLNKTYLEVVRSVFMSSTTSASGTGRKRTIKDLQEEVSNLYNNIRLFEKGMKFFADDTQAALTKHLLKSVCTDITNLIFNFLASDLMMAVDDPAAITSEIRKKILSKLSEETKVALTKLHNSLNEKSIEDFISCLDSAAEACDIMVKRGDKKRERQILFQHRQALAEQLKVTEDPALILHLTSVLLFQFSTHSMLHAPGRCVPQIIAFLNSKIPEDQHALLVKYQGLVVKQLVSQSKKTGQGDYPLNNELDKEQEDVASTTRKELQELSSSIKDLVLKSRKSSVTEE
UniProt Q04637: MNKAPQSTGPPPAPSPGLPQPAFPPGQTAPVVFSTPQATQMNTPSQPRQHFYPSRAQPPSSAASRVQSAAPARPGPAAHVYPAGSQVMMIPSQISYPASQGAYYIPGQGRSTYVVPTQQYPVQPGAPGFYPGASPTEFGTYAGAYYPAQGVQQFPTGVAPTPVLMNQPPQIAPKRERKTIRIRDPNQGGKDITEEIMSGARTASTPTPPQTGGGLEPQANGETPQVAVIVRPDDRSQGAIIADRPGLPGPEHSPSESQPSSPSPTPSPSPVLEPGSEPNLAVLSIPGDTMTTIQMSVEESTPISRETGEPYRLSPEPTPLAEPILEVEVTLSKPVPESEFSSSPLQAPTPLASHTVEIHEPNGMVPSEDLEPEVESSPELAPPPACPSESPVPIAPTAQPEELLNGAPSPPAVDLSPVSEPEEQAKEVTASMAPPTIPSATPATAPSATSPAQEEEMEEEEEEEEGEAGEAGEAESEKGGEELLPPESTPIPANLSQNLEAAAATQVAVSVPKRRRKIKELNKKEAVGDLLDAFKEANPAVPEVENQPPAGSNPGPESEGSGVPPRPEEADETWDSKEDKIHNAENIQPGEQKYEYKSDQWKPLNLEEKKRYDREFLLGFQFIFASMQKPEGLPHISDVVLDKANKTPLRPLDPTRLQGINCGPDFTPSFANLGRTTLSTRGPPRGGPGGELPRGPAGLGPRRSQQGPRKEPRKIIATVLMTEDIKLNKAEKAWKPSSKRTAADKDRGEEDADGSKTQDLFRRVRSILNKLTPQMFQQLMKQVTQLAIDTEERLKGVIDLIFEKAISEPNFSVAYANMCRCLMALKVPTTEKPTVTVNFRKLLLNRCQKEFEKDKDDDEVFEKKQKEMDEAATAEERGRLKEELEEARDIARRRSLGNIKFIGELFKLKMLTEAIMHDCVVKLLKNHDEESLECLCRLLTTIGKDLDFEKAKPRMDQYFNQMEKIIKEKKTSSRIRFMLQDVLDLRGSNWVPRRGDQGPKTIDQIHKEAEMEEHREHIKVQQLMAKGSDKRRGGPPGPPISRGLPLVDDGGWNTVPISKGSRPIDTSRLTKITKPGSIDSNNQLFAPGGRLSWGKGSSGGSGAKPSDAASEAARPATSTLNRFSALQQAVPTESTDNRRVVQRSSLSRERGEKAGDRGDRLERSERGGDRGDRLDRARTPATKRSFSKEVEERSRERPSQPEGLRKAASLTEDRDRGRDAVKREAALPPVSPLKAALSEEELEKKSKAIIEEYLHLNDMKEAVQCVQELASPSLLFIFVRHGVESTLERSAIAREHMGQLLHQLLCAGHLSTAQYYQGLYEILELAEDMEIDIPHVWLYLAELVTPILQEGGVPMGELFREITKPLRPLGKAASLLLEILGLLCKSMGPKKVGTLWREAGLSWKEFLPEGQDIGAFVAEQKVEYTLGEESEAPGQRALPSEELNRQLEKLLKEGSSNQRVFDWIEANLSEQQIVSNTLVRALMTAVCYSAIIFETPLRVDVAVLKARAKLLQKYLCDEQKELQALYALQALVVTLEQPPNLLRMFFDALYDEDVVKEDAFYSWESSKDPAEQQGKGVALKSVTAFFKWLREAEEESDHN

Tests used:
[1] = molecular target: FLAG-BPLF1 (vDUB, N-terminal domain of the Epstein-Barr virus large tegument protein BPLF1) (Epstein-Barr virus) (UniProt P03186); assay: co-IP; HEK293T harvested 24 h after transfection; lysates incubated with anti-FLAG agarose affinity gel for 3 h at 4°C; immunoblot
[2] = molecular target: UFL1 (UFM1 specific ligase 1), endogenous (human (endogenous in HEK293T)) (UniProt O94874); assay: co-IP
[3] = molecular target: T1, DDRGK1 (DDRGK domain containing 1), endogenous (human (endogenous in HEK293T)) (UniProt Q96HY6); assay: co-IP
T1 sequence: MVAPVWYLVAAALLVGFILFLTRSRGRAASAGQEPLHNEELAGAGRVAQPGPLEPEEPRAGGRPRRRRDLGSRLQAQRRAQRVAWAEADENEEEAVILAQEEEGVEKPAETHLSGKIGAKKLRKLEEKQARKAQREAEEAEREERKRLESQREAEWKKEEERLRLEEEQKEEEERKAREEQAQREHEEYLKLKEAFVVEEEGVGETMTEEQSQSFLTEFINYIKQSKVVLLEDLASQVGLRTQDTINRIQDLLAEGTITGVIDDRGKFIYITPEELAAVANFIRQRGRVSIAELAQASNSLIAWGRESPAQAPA

[4] = molecular target: CDK5RAP3 (CDK5 regulatory subunit associated protein 3), endogenous (human (endogenous in HEK293T)) (UniProt Q96JB5); assay: co-IP
MBP-UFL1 = MBP-UFL1 (UniProt O94874); assay: pull-down; equimolar purified bacterially expressed His-BPLF1 and MBP-UFL1 mixed; affinity isolation of the HIS and MBP tags from equal aliquots; Western blot; both purified

Question: Which binding [1] does the source give for “EIF4G1, endogenous (from UniProt Q04637 1-1599)” here?
Answer: binds

Question: For “FLAG-BPLF1 (vDUB, N-terminal domain of the Epstein-Barr virus large tegument protein BPLF1) (from UniProt P03186 1-235) (domain or fragment)”, which binding [2] is on record?
Answer: binds

Question: And the binding [3]?
Answer: binds

Question: What about the binding [4] of the same substance?
Answer: binds

Question: For “His-BPLF1 (1–235) (from UniProt P03186 1-235) (domain or fragment)”, which binding (MBP-UFL1) is on record?
Answer: binds weakly
